This assay has as its system MMP-13. The experiment in a line: MMP-13 production inhibition test. The settings on record: 30 μmol/L; human cartilage derived cell line SW1353, IL-1β 10 ng/mL, 16 hours after stimulation, MMP-13 in culture supernatant by ELISA; read-out: Inhibition rate (%) at 30 μmol/L. It is filed as cell-based. The procedure: MMP-13 Production Inhibition Test
6.8×10^3 human cartilage derived cell line SW1353 cells were suspended in 100 μL of Dulbecco modified Eagle's medium supplemented with 10% fetal calf serum, plated on 96-well plates and cultured for 3 days. After the culture medium was changed to Dulbecco modified Eagle's medium containing 0.2% lactalbumin hydrolysate and the cells were cultured for 6 hours, test compounds were added and then IL-1β was added to obtain the final concentration of 10 ng/mL 1 hour later. 16 hours after the stimulation, supernatant was collected and the amount of MMP-13 in the culture supernatant was determined with an ELISA kit (Amersham). The inhibition rate was calculated from the amount of MMP-13 in the presence of a test compound assuming that the amount of MMP-13 was 100% in the absence of the test compound.

`CN(C)c1ccc(-c2ccc(C(=O)O)c(Nc3ccc(F)cc3)c2)cc1` [Example 237, 4-(4-(dimethylamino)phenyl)-2-(4-fluoroanilino)benzoic acid]: the inhibition at 30 µM came out at 97%.

Values taken from US8327467B2, “Anthranilic acid derivative or salt thereof” (Toyama Chemical Co., Ltd., priority 2005, dated 2012).
